Laboratory results: paper PMC12025923 (Cells, 2025)
Numbering of substitutions follows the chain as printed. Names may count otherwise. Results are given in words; binding and its absence hold for the method and conditions named. In cells and extracts the contact can be indirect. Some entries that bind do so weakly or less than the wild type. Where a sequence is shown, tags or fusion partners need not be part of it.

B1: wild-type 14-3-3γ-3xHA (protein, UniProt P61981 1-247)
chain: MVDREQLVQKARLAEQAERYDDMAAAMKNVTELNEPLSNEERNLLSVAYKNVVGARRSSWRVISSIEQKTSADGNEKKIEMVRAYREKIEKELEAVCQDVLSLLDNYLIKNCSETQYESKVFYLKMKGDYYRYLAEVATGEKRATVVESSEKAYSEAHEISKEHMQPTHPIRLGLALNYSVFYYEIQNAPEQACHLAKTAFDDAIAELDTLNEDSYKDSTLIMQLLRDNLTLWTSDQQDDDGGEGNN
B2: 14-3-3γ-R57C-3xHA (protein, UniProt P61981 1-247)
chain: B1 chain with R57C
B3: 14-3-3γ-R57G-3xHA (protein, UniProt P61981 1-247)
chain: B1 chain with R57G
B4: 14-3-3γ-R132C-3xHA (protein, UniProt P61981 1-247)
chain: B1 chain with R132C
B5: 14-3-3γ-Y133S-3xHA (protein, UniProt P61981 1-247)
chain: B1 chain with Y133S

What was measured:
[1] = target: T1, wild-type 14-3-3γ-GFP (human) (UniProt P61981); assay: co-IP; N2a cells co-transfected with wt 14-3-3γ-GFP and wt or mutant 14-3-3γ-3xHA (1:1); lysate (50 mM Tris-HCl pH 8.0, 150 mM NaCl, 0.6% Triton X-100, 0.2% glycerol) with GST-tagged GFP-nanobody and Glutathione Sepharose 4B, overnight at 4 °C; blot for GFP and HA
T1 sequence: B1 chain

[2] = target: T2, GFP-SLP76 (human) (UniProt Q13094); assay: co-IP; as a2 but in human HEK293T cells (Figure S2G,H)
T2 sequence: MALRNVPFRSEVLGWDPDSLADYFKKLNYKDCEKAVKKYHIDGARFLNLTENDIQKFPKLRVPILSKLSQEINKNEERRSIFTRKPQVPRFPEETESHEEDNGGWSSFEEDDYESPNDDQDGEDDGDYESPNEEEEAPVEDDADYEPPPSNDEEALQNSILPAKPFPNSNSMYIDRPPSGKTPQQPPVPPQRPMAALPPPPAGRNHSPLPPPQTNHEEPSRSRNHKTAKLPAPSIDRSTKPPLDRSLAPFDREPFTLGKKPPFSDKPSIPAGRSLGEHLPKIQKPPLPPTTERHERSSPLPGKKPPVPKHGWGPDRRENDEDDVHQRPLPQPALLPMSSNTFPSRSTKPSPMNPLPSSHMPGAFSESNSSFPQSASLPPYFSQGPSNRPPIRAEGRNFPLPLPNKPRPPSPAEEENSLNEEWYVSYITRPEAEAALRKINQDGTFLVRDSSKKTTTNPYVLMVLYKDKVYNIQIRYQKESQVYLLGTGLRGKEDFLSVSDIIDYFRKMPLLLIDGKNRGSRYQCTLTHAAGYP

[3] = target: T2, GFP-SLP76 (human); assay: co-IP; N2a cells co-transfected with 14-3-3γ-GFP (wt or R57C) and 3xHA-TH (1:2), or GFP-SLP76 and 14-3-3γ-3xHA (wt or R57C) (2:1); lysate with protease and phosphatase inhibitors, GST-tagged GFP-nanobody and Glutathione Sepharose 4B, 3 h at 4 °C; blot for GFP and HA

| Binder | binding [1] | binding [2] | binding [3] |
| --- | --- | --- | --- |
| B1 | binds | binds | binds |
| B2 | binds | – | – |
| B3 | binds | – | – |
| B4 | binds | – | – |
| B5 | binds | – | – |
